Data as given in PubChem BioAssay AID1259267 (Sanger Institute, 2017).

Screen: 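Kinase and colorectal-mutated gene knock-downs lethal to GP5D cells alone or with drugs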 (primary screen)
Cell system: human GP5D colorectal cancer cells
Knock-down reagent: siRNA pool against human genes
Challenge: anchor drugs at low dose: BYL719 1 µM, cetuximab 5 µg/ml, trametinib 10 nM, or DMSO vehicle
Measured: 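Viability against non-targeting pool, replicate mean: robust z-score for knock-down alone, fraction with DMSO, synergy with BYL719 1 µM, cetuximab 5 µg/ml, trametinib 10 nM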
Direction: robust z-score, knock-down alone and viability with DMSO: higher = more viable cells; synergy score with trametinib and synergy score with BYL719 and synergy score with cetuximab: higher = stronger synthetic lethal synergy with drug
Call rule: 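Active (essential alone) if knock-down without drug gives robust z-score under -3; drug synergy does not count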
Meaning of the calls: active = essential alone; inactive = not essential
This is a random part of 794 deposited reagents. Over the whole deposit, 9 (1.1%) got an active call. 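Viability capped at 1; calls reflect loss of viability from knock-down alone, not synergy with drugs.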 Not stated in the record: the amount of reagent, the time to read-out.

| gene symbol | robust z-score, knock-down alone | viability with DMSO (fraction of control) | synergy score with trametinib | synergy score with BYL719 | synergy score with cetuximab | outcome |
| --- | --- | --- | --- | --- | --- | --- |
| NME3 | 0.0925 | 0.846 | 0.115 | -0.0945 | 0.175 | inactive |
| MPP3 | -2.2 | 0.36 | 0.0876 | -0.0474 | -0.0887 | inactive |
| BMPR2 | 0.307 | 0.892 | 0.283 | 0.214 | 0.234 | inactive |
| SYNCRIP | -0.577 | 0.705 | 0.293 | 0.116 | 0.0992 | inactive |
| GNAS | -0.577 | 0.705 | 0.0827 | 0.062 | -0.0411 | inactive |
| IKBKE | -1.71 | 0.465 | -0.116 | -0.253 | 0.025 | inactive |
| DGUOK | 0.408 | 0.913 | -0.0679 | -0.0257 | -0.174 | inactive |
| NUAK2 | -0.543 | 0.712 | -0.0481 | -0.13 | -0.136 | inactive |
| NTN4 | -0.945 | 0.627 | -0.0925 | 0.166 | -0.0136 | inactive |
| RIPK2 | 0.279 | 0.886 | 0.0919 | 0.0298 | -0.184 | inactive |
| THNSL1 | 0.817 | 1 | -0.11 | -0.257 | -0.142 | inactive |
| MAP3K21 | -0.627 | 0.694 | -0.157 | -0.217 | -0.16 | inactive |
| PAK1 | -0.592 | 0.701 | 0.00577 | -0.19 | 0.0601 | inactive |
| ACVRL1 | 0.811 | 0.999 | 0.0908 | -0.189 | -0.0233 | inactive |
| TAOK1 | 0.817 | 1 | -0.0413 | -0.181 | -0.141 | inactive |
| PHKB | -0.711 | 0.676 | 0.131 | -0.0583 | -0.0172 | inactive |
| PIP5K1B | 0.817 | 1 | -0.0514 | -0.134 | -0.142 | inactive |
| DAPK1 | 0.817 | 1 | 0.311 | -0.159 | -0.00823 | inactive |
| ELP1 | -0.574 | 0.705 | -0.186 | -0.281 | -0.31 | inactive |
| NAGK | -2.23 | 0.353 | -0.264 | -0.172 | -0.0272 | inactive |
